PMC12224427
These are yes or no findings as the source states them, for the method shown. Binding seen in cells or lysates may run through a third protein. Tags and fused reporters may be left off the sequences shown.

Protein sequences, listed by entry. Tags and fused reporters are not part of them.
UniProt Q86U44: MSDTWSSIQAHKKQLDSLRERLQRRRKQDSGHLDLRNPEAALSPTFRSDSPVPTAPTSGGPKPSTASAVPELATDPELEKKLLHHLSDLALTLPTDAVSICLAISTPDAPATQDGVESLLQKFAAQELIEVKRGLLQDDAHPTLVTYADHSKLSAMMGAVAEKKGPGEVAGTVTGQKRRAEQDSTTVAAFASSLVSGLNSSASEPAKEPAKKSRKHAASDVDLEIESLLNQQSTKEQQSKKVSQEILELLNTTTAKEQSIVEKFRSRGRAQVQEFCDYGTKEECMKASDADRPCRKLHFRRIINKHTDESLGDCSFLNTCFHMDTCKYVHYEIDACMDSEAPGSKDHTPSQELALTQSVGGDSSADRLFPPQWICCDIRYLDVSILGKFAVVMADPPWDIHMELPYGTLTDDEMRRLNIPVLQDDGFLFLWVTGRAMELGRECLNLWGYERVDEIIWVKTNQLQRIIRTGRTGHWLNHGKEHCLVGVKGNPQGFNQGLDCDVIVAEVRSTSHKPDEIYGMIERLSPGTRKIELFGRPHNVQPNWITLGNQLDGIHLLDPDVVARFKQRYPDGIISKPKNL

Biological target: T1, Flag-tagged 6-phosphogluconate dehydrogenase (6PGD) (UniProt P52209)
T1 sequence: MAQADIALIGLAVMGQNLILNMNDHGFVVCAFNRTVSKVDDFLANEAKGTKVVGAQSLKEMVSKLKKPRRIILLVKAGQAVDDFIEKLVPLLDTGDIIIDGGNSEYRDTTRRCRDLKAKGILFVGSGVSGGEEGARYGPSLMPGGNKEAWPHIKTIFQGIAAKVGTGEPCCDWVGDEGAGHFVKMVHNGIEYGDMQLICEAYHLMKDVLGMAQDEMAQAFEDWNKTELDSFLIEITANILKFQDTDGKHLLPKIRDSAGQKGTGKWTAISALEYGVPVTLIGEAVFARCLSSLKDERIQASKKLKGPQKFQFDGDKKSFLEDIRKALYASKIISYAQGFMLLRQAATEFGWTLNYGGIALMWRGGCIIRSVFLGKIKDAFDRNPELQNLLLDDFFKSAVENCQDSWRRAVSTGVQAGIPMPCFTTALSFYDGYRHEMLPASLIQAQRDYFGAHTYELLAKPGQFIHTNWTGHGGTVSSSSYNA
Test: co-IP; 6PGD Flag pull-down from HCT116, HCT8 and LoVo cells, western blotting of m6A-related proteins

“METTL3, endogenous (from UniProt Q86U44 1-580) (enzyme)” was tested, and the binding was “no binding”.
